Reference: paper PMC5548924, “The N-Terminal Region of Fibrillin-1 Mediates a Bipartite Interaction with LTBP1” (Structure(London, England:1993), 2017)
These are yes or no findings as the source states them, for the method shown.

Chains of the proteins cited; added tags and fusions are not shown. Lines headed by an entry give the natural chain unless they say otherwise; changes in a name come on top. A line that says so, or that is headed by a name, gives the form on record, which may keep a tag or linker.
FBN1^E2cbEGF1 (fibrillin-1 EGF2-EGF3-Hyb1-cbEGF1) (P35555, form named): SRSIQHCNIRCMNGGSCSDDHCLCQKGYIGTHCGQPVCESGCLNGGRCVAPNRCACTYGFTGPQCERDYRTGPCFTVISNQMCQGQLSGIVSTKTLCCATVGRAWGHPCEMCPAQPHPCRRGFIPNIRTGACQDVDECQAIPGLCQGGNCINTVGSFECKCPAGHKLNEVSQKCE

Molecular target: FBN1^E2cbEGF1 (fibrillin-1 EGF2-EGF3-Hyb1-cbEGF1) (human) (UniProt P35555)
Experiment: SAXS; FBN1^E2cbEGF1 at 11.55, 5.78, 2.89 and 1.44 mg/mL; 20 mM MES pH 5.4, 5 mM CaCl2, 5% glycerol; both purified

## FBN1^E2cbEGF1 (fibrillin-1 EGF2-EGF3-Hyb1-cbEGF1) (from UniProt P35555 113-287) (domain or fragment)
  binding: no binding (tested: 11.55 mg/mL)
